Results: doi:10.1101/533067
These are yes or no findings as the source states them, for the method shown. In cells and extracts the contact can be indirect. Some results given as binding are weak or reduced against the parent protein; the word gives no strength. Sequences can lack the tags named with a protein.

Chains of the proteins cited; added tags and fusions are not shown.
UniProt P32563: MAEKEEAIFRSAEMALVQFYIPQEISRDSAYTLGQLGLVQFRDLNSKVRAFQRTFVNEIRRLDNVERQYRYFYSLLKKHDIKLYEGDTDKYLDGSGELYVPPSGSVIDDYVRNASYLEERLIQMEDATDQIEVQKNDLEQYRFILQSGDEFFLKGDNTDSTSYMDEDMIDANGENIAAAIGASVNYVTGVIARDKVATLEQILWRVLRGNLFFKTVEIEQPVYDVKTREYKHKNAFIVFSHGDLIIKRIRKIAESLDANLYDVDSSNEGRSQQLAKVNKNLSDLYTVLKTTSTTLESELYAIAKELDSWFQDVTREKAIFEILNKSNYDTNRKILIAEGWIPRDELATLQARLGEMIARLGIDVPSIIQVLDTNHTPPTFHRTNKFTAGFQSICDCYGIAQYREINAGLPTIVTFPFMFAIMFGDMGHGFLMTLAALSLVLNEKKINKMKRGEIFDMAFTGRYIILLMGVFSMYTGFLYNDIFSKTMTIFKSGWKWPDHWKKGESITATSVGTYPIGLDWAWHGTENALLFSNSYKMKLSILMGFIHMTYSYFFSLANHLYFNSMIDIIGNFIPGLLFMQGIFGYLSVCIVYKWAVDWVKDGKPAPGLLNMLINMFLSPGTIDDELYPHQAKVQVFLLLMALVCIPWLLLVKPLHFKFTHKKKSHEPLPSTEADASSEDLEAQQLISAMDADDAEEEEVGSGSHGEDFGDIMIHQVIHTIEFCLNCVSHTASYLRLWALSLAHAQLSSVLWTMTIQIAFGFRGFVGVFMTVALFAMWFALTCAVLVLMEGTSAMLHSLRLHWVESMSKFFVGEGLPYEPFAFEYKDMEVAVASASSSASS

T1: Pmc1 tagged with HA (Pmc1-HA3), vacuolar Ca2+ ATPase (Saccharomyces cerevisiae) (UniProt P38929)
T1 sequence: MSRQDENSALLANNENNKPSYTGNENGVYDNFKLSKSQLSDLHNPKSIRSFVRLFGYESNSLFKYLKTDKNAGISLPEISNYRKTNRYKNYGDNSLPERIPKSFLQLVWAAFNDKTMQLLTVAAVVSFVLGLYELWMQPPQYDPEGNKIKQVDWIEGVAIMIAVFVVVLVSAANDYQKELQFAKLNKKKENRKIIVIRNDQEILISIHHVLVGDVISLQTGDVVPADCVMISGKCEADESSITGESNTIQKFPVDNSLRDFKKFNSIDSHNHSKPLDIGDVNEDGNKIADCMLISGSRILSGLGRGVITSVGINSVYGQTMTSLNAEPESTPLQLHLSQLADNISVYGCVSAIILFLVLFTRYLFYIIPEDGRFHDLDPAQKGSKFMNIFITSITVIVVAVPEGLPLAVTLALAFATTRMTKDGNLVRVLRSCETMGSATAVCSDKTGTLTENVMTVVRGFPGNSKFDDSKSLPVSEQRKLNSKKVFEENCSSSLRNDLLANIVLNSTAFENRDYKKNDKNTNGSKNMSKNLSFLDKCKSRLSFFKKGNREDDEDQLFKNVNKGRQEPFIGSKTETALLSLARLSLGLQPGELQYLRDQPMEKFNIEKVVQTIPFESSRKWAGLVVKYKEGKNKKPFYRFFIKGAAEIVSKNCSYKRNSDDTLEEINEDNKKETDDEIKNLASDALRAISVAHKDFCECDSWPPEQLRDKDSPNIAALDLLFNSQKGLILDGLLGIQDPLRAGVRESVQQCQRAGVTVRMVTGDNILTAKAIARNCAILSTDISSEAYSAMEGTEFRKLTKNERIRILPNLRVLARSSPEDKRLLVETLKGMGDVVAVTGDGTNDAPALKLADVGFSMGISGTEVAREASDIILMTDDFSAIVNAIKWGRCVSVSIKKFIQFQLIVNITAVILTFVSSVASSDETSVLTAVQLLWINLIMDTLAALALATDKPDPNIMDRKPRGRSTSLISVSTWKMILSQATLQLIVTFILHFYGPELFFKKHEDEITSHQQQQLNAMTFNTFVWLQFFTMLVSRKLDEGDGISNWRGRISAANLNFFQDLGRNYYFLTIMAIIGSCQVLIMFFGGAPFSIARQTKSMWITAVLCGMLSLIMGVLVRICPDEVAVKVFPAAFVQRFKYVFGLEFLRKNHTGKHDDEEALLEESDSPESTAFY


Biological target: T1, Pmc1 tagged with HA (Pmc1-HA3), vacuolar Ca2+ ATPase (Saccharomyces cerevisiae)
Test: co-IP

| binding | Molecule |
| --- | --- |
| binds | Vph1, Vo component of the V-ATPase (from UniProt P32563 1-840) |
| binds | Nyv1, vacuolar R-SNARE (protein, UniProt Q12255 1-253) MKRFNVSYVEVIKNGETISSCFQPFQKNENYGTITSANEQITPVIFHNLIMDMVLPKVVPIKGNKVTKMSMNLIDGFDCFYSTDDHDPKTVYVCFTLVDMPKILPIRILSGLQEYESNATNELLSSHVGQILDSFHEELVEYRNQTLNSSGNGQSSNGNGQNTISDIGDATEDQIKDVIQIMNDNIDKFLERQERVSLLVDKTSQLNSSSNKFRRKAVNIKEIMWWQKVKNITLLTFTIILFVSAAFMFFYLW |
